According to the supplement of paper PMC9744312:
Counter-ions that a name gives are not always drawn. The list shows a part of the results. This is a noisy data set.

test system: Peyronie's disease tunica albuginea primary fibroblasts; experiment: inhibition of TGF-beta1-induced alpha-SMA expression (myofibroblast transformation), relative to TGF-beta1-only and untreated controls; higher = stronger inhibition of myofibroblast transformation; settings: 10 µM; TGF-beta1 10 ng/mL; 72 h

SMILES | inhibition of TGF-beta1-induced alpha-SMA expression [%]
CN(C)C(=O)Oc1cccc([N+](C)(C)C)c1 [Neostigmine Bromide] | -21.6
COc1ccc(C(CN(C)C)C2(O)CCCCC2)cc1 (stereo not given) [Venlafaxine] | 6.56
COc1ccc(C(CN(C)C)C2(O)CCCCC2)cc1 (stereo not given) [Venlafaxine HCl] | 24.7
C[C@]12CCC(=O)C(O)=C1CC[C@@H]1[C@@H]2CC[C@]2(C)C(=O)CC[C@@H]12 [Formestane] | -16.5
CN1[C@@H]2CC[C@H]1C[C@@H](OC(=O)C(CO)c1ccccc1)C2 (stereo not given in full) [Atropine sulfate monohydrate] | 12.4
CN1[C@@H]2CC[C@H]1C[C@@H](OC(=O)C(CO)c1ccccc1)C2 (stereo not given in full) [Atropine sulfate] | 8.96
CCCCCCCCC(=O)NCc1ccc(O)c(OC)c1 [Nonivamide] | -1.52
NCCCNCCSP(=O)(O)O [Amifostine] | 17.6
CN(C)C(=O)Oc1ccc[n+](C)c1 [Pyridostigmine Bromide] | 8.69
O=c1[nH]c2ccccc2n1C1CCN(CCCC(c2ccc(F)cc2)c2ccc(F)cc2)CC1 [Pimozide] | 8.77
CC(C)NCC(O)c1ccccc1Cl (stereo not given) [Clorprenaline HCl] | 30.4
CC[N+](C)(CC)CCOC(=O)C(O)(c1ccccc1)c1ccccc1 [Methylbenactyzine Bromide] | 54.8
C[C@@H]1[C@H](O)[C@@H](C)/C=C/C=C/CC/C=C/C=C/C=C/C=C/[C@H](O[C@H]2O[C@@H](C)[C@H](O)[C@@H](N)[C@H]2O)C[C@@H]2O[C@](O)(C[C@@H](O)[C@H](O)CC[C@@H](O)C[C@@H](O)C[C@@H](O)CC(=O)O[C@H]1C)C[C@H](O)[C@H]2C(=O)O [Nystatin (Fungicidin)] | 6.37
N[C@@H]1C[C@H]1c1ccccc1 [Tranylcypromine (2-PCPA) HCl] | 21.6
[O-][n+]1ccccc1[S-].[O-][n+]1ccccc1[S-].[Zn+2] [Zinc Pyrithione] | > 100
O=[N+]([O-])C(Br)(CO)CO [Bronopol] | 15.4
CN1[C@@H]2C[C@@H](OC(=O)[C@H](CO)c3ccccc3)C[C@H]1[C@@H]1O[C@@H]12 [Scopolamine HBr] | 28.2
CC(NC(C)(C)C)C(=O)c1cccc(Cl)c1 (stereo not given) [Amfebutamone (Bupropion) HCl] | 17.8
NC[C@H](CC(=O)O)c1ccc(Cl)cc1 [(R)-baclofen] | -4.27
O=C1CC[C@@]2(O)[C@H]3Cc4ccc(O)c5c4[C@@]2(CCN3CC2CC2)[C@H]1O5 [Naltrexone HCl] | 9.45
Cn1c(CCCC(=O)O)nc2cc(N(CCCl)CCCl)ccc21 [Bendamustine HCl] | -6.69
CN[C@@H]1[C@@H](O)[C@@H](O[C@@H]2[C@@H](O)[C@H](O[C@H]3O[C@H](CN)CC[C@H]3N)[C@@H](N)C[C@H]2N)OC[C@]1(C)O.CN[C@@H]1[C@@H](O)[C@@H](O[C@@H]2[C@@H](O)[C@H](O[C@H]3O[C@H]([C@@H](C)N)CC[C@H]3N)[C@@H](N)C[C@H]2N)OC[C@]1(C)O.CN[C@@H]1[C@@H](O)[C@@H](O[C@@H]2[C@@H](O)[C@H](O[C@H]3O[C@H]([C@@H](C)NC)CC[C@H]3N)[C@@H](N)C[C@H]2N)OC[C@]1(C)O [Gentamicin Sulfate] | -0.757
CC(=O)O[C@H]1C[C@@H]2CC[C@@H]3[C@H](CC[C@@]4(C)[C@H]3C[C@H]([N+]3(C)CCCCC3)[C@@H]4OC(C)=O)[C@@]2(C)C[C@@H]1[N+]1(C)CCCCC1 [Pancuronium dibromide] | 22.1
c1ccc2c(c1)Nc1ccccc1S2 [Phenothiazine] | 33.9
C[C@]12CCC(=O)C=C1C=C[C@@H]1[C@@H]2CC[C@@]2(C)[C@H]1CC[C@@]2(O)CCC(=O)O [Potassium Canrenoate] | 6.44

SMILES | inhibition of TGF-beta1-induced alpha-SMA expression [%]
Cc1cccc(C)c1NC(=O)CN1CCCC1=O [Nefiracetam] | 9.42
Cc1cccc(Cc2c[nH]cn2)c1C [Detomidine HCl] | 6.37
CC(C)C(Br)C(=O)NC(N)=O (stereo not given) [Bromisoval] | 7
CCCC[N+]1(C)[C@@H]2C[C@@H](OC(=O)[C@H](CO)c3ccccc3)C[C@H]1[C@@H]1O[C@@H]12 (stereo not given in full) [Butylscopolamine Bromide] | -2.74
CNC1CC(N)C(O)C(OC2OC(CO)C(O)C3OC4(OC(C(N)CO)C(O)C(O)C4O)OC23)C1O (stereo not given) [Hygromycin B] | 14.9
C=CCN1CC[C@]23c4c5ccc(O)c4O[C@H]2C(=O)CC[C@@]3(O)[C@H]1C5 [Naloxone HCl] | 17.7
Cn1cc(C2=C(c3cn(C4CCN(Cc5ccccn5)CC4)c4ccccc34)C(=O)NC2=O)c2ccccc21 | 2.53
NC(=O)c1cc(N2CC2)c([N+](=O)[O-])cc1[N+](=O)[O-] | 31.9
CC(C)OC(=O)[C@H](C)N[P@](=O)(CO[C@H](C)Cn1cnc2c(N)ncnc21)Oc1ccccc1 [Tenofovir Alafenamide (GS-7340)] | 11.4
CC(=O)O[C@H]1CC[C@@]2(C)C(=CC[C@@H]3[C@@H]2CC[C@]2(C)C(=O)CC[C@@H]32)C1 [Dehydroepiandrosterone acetate] | -2.27
CC(C)c1cccc(C(C)C)c1O [Propofol] | 14.9
COc1cc2c(c(OC)c1OC)-c1ccc(OC)c(=O)cc1[C@@H](NC(C)=O)CC2 [Colchicine] | 77.8
O=C(O)c1nn(Cc2ccc(Cl)cc2Cl)c2ccccc12 [Lonidamine] | -4.56
Cc1cc(C(C#N)c2ccc(Cl)cc2)c(Cl)cc1NC(=O)c1cc(I)cc(I)c1O (stereo not given) [Closantel] | 7.44
Cc1cc(C(C#N)c2ccc(Cl)cc2)c(Cl)cc1NC(=O)c1cc(I)cc(I)c1O (stereo not given) [Closantel Sodium] | 4.17
CCOC(=O)Nc1ccc(NCc2ccc(F)cc2)cc1N [Retigabine 2HCl] | 65.3
CCOC(=O)Nc1ccc(NCc2ccc(F)cc2)cc1N [Retigabine] | 57.2
CC(O)(CS(=O)(=O)c1ccc(F)cc1)C(=O)Nc1ccc(C#N)c(C(F)(F)F)c1 (stereo not given) [Bicalutamide] | -11.9
CCOC(=O)c1cncn1[C@H](C)c1ccccc1 [Etomidate] | -19.4
O=c1cccc2n1C[C@@H]1CNC[C@H]2C1 [Cytisine] | 8.05
NCC1(CC(=O)O)CCCCC1 [Gabapentin] | -0.309
NCC1(CC(=O)O)CCCCC1 [Gabapentin HCl] | -1.22
Cc1ccc2c(c1)[C@]13CCCC[C@@H]1[C@H](C2)N(C)CC3 [Dimemorfan phosphate] | 42.7
O=[N+]([O-])O[C@H]1CO[C@H]2[C@@H]1OC[C@H]2O[N+](=O)[O-] [Isosorbide dinitrate] | 0.216
C=C1CC[C@@]2(O)[C@H]3Cc4ccc(O)c5c4[C@@]2(CCN3CC2CC2)[C@H]1O5 [Nalmefene HCl] | 15.5

11 consecutive entries from above, for reference:
SMILES | inhibition of TGF-beta1-induced alpha-SMA expression [%]
CN1[C@@H]2CC[C@H]1C[C@@H](OC(=O)C(CO)c1ccccc1)C2 (stereo not given in full) [Atropine sulfate] | 8.96
CCCCCCCCC(=O)NCc1ccc(O)c(OC)c1 [Nonivamide] | -1.52
NCCCNCCSP(=O)(O)O [Amifostine] | 17.6
CN(C)C(=O)Oc1ccc[n+](C)c1 [Pyridostigmine Bromide] | 8.69
O=c1[nH]c2ccccc2n1C1CCN(CCCC(c2ccc(F)cc2)c2ccc(F)cc2)CC1 [Pimozide] | 8.77
CC(C)NCC(O)c1ccccc1Cl (stereo not given) [Clorprenaline HCl] | 30.4
CC[N+](C)(CC)CCOC(=O)C(O)(c1ccccc1)c1ccccc1 [Methylbenactyzine Bromide] | 54.8
C[C@@H]1[C@H](O)[C@@H](C)/C=C/C=C/CC/C=C/C=C/C=C/C=C/[C@H](O[C@H]2O[C@@H](C)[C@H](O)[C@@H](N)[C@H]2O)C[C@@H]2O[C@](O)(C[C@@H](O)[C@H](O)CC[C@@H](O)C[C@@H](O)C[C@@H](O)CC(=O)O[C@H]1C)C[C@H](O)[C@H]2C(=O)O [Nystatin (Fungicidin)] | 6.37
N[C@@H]1C[C@H]1c1ccccc1 [Tranylcypromine (2-PCPA) HCl] | 21.6
[O-][n+]1ccccc1[S-].[O-][n+]1ccccc1[S-].[Zn+2] [Zinc Pyrithione] | > 100
O=[N+]([O-])C(Br)(CO)CO [Bronopol] | 15.4
